Our source for the binding values is publication PMC12147762.

These are yes or no findings as the source states them, for the method shown. In cells and extracts the contact can be indirect. Here binding means that the protein was enriched with, or labelled near, the bait; the list need not be complete.

The assay concerns the target T1, POU2AF1 (human (endogenous in MM1.S)) (UniProt Q16633).
T1 sequence: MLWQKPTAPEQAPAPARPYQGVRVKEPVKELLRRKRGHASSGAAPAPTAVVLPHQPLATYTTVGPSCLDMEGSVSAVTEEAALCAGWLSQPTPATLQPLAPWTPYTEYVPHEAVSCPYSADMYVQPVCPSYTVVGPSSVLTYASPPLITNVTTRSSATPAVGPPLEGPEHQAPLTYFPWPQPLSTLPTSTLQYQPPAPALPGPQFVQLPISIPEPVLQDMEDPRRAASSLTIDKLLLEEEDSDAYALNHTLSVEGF
In words: affinity purification with mass spectrometry; POU2AF1 RIME in MM1.S cells: 1% formaldehyde cross-linking for 8 min, sonicated nuclear lysate, immunoprecipitation overnight at 4°C, TMT labelling, LC-MS/MS.

B1: IRF4 (protein, UniProt Q15306 1-451)
chain: MNLEGGGRGGEFGMSAVSCGNGKLRQWLIDQIDSGKYPGLVWENEEKSIFRIPWKHAGKQDYNREEDAALFKAWALFKGKFREGIDKPDPPTWKTRLRCALNKSNDFEELVERSQLDISDPYKVYRIVPEGAKKGAKQLTLEDPQMSMSHPYTMTTPYPSLPAQQVHNYMMPPLDRSWRDYVPDQPHPEIPYQCPMTFGPRGHHWQGPACENGCQVTGTFYACAPPESQAPGVPTEPSIRSAEALAFSDCRLHICLYYREILVKELTTSSPEGCRISHGHTYDASNLDQVLFPYPEDNGQRKNIEKLLSHLERGVVLWMAPDGLYAKRLCQSRIYWDGPLALCNDRPNKLERDQTCKLFDTQQFLSELQAFAHHGRSLPRFQVTLCFGEEFPDPQRQRKLITAHVEPLLARQLYYFAQQNSGHFLRGYDLPEHISNPEDYHRSIRHSSIQE
Turning to B1, the binding result is “binds”.
